Data as given in PubChem BioAssay AID540276 (National Center for Advancing Translational Sciences (NCATS), 2011).
Values joined by “and” are separate entries in the source; they are usually repeats but may differ in a detail not shown here. Equal values may be shown once. Out of some 300,000 compounds screened, about 5,400 (1.8%) were called active. The shares of active, inactive and inconclusive entries below differ from those in the screen. Calls come from the whole dose curve; tested in HEK293 cells. Potencies beside an inconclusive call are fits to weak or partial responses and may not hold up.

assay: qHTS for inhibitors of binding or entry into cells for Marburg Virus; settings: Marburg virus pseudotyped entry inhibition, cell reporter; series mostly up to 37.8 µM
Potency is the fitted concentration of half-maximal effect.

Question: With `CCCN1Cc2cc(OC)ccc2-c2ccccc2S1(=O)=O` as the compound, how does the Potency read?
Answer: inconclusive: 0.0035 µM [inhibitor, full curve, poor fit]

Question: With `Cc1c(C(=O)OCC(=O)Nc2ccc(S(N)(=O)=O)cc2)oc2c1ccc1ccccc12` as the compound, how does the Potency read?
Answer: inconclusive: 3.16 µM [inhibitor, partial curve, poor fit]

Question: Which Potency does the source give for `Cc1ccccc1C(=O)NC(=S)Nc1ncccn1` here?
Answer: inconclusive: 7.08 µM [activator, full curve, poor fit]

Question: With `CCOc1ccc2[nH]c3nc(SCC(=O)NCC4CCCO4)nnc3c2c1` (stereo unspecified) as the compound, how does the Potency read?
Answer: inconclusive: 35.5 µM [inhibitor, single point]

Question: Which Potency does the source give for `Cc1ccc(NC(=O)COc2ccc(-c3nn(C)c(=O)c4ccccc34)cc2)c(C)c1` here?
Answer: inactive

Question: For `Clc1ccccc1Oc1cnc2ccccc2n1`, which Potency is on record?
Answer: inactive

Question: Which Potency does the source give for `COc1cccc(N2CCN(c3ncnc4c3[nH]c3ccc(F)cc34)C[C@@H]2C)c1` here?
Answer: inconclusive: 4.47 µM [inhibitor, full curve, poor fit]

Question: With `Cc1cc(C)c(C#N)c(OCC(=O)Nc2ccccc2)n1` as the compound, how does the Potency read?
Answer: inactive

Question: With `Cc1ccc(Oc2ncc(CN3CCOCC3)s2)cc1` as the compound, how does the Potency read?
Answer: inconclusive: 14.6 µM [activator, single point]

Question: For `CCC(=O)N1c2ccc(S(=O)(=O)N3CCCCCC3)cc2CC1C` (stereo unspecified), which Potency is on record?
Answer: inactive

Question: For `CCCn1c(=N)c(S(=O)(=O)c2ccccc2)cc2c(=O)n3ccccc3nc21`, which Potency is on record?
Answer: inconclusive: 25.1 µM [inhibitor, single point]

Question: Which Potency does the source give for `CCc1ccc(-c2nc(CN3CCC(C(=O)N4CCN(c5ccccc5)CC4)CC3)c(C)o2)cc1` here?
Answer: inconclusive: 11.2 µM [inhibitor, single point]

Question: For `Cc1ccc(NS(=O)(=O)c2ccc(C(=O)NCCCN3CCCC3=O)cc2)cc1`, which Potency is on record?
Answer: inconclusive: 11.2 µM [inhibitor, partial curve]

Question: With `CC(=O)C1=C(C)NC(SCc2cccc3ccccc23)=C(C#N)C1c1ccco1` (stereo unspecified) as the compound, how does the Potency read?
Answer: inactive

Question: Which Potency does the source give for `CCOc1ccccc1NC(=O)c1ccc(OCC)c([N+](=O)[O-])c1` here?
Answer: inactive

Question: Which Potency does the source give for `Cc1nccn1-c1cc(C(C)(C)C)nc2c(-c3ccccc3)cnn12` here?
Answer: inactive

Question: For `CCOC(=O)c1cnn(-c2nc(SC)nc3sc4c(c23)CCC4)c1N`, which Potency is on record?
Answer: inactive

Question: For `CCNC(=O)CC1C(=O)N(c2ccccc2)C(=O)N1Cc1ccc(OC)cc1` (stereo unspecified), which Potency is on record?
Answer: inconclusive: 20.6 µM [activator, single point]

Question: Which Potency does the source give for `Cc1nc(N=Nc2ccc(S(=O)(=O)O)cc2S(=O)(=O)O)c(COP(=O)(O)O)c(C=O)c1O` here?
Answer: inconclusive: 13 µM [activator, partial curve, poor fit] and inconclusive: 35.5 µM [activator, single point]

Question: For `COc1cccc(NC(=O)Nc2ccc3c(c2)nc(C)n3C)c1`, which Potency is on record?
Answer: inconclusive: 7.94 µM [inhibitor, partial curve, poor fit]

Question: Which Potency does the source give for `Cc1cc(C)cc(NC(=O)c2cc(Cl)sc2Cl)c1` here?
Answer: inactive

Question: Which Potency does the source give for `CC(C)(C)c1ccc(OCCC(=O)Nc2cccc(S(=O)(=O)NC3=NCCCCC3)c2)cc1` here?
Answer: inconclusive: 10 µM [inhibitor, partial curve, poor fit]

Question: With `Cn1ncc2c(Nc3ccccc3Cl)nc(Nc3ccccc3Cl)nc21` as the compound, how does the Potency read?
Answer: inconclusive: 11.2 µM [inhibitor, partial curve, poor fit]

Question: Which Potency does the source give for `COC(CNC(=O)CCc1c(C)nc2c(-c3ccccc3)c(C)nn2c1C)OC` here?
Answer: inconclusive: 8.91 µM [activator, partial curve, poor fit]

Question: With `CCOC(=O)c1ccc(NC(=O)CN(c2ccc(C)cc2)S(=O)(=O)c2c(C)nn(C)c2C)cc1` as the compound, how does the Potency read?
Answer: inactive

Question: For `CCOc1ccc(C(=O)NC(=S)Nc2ccc(N3CCC(C)CC3)cc2)cc1[N+](=O)[O-]`, which Potency is on record?
Answer: inconclusive: 2.24 µM [inhibitor, partial curve, poor fit]

Question: For `CCC1CCCCN1CCCNC(=O)c1ccc(N2CCOCC2)c(NS(=O)(=O)c2ccc(OC)cc2)c1` (stereo unspecified), which Potency is on record?
Answer: inconclusive: 12.6 µM [inhibitor, partial curve, poor fit]

Question: For `CCC(C)c1ccccc1OCCCN(C)Cc1ccccc1` (stereo unspecified), which Potency is on record?
Answer: inconclusive: 20 µM [inhibitor, partial curve, poor fit]

Question: For `CC(=O)N/C(N)=N/c1nc2cc([N+](=O)[O-])ccc2o1`, which Potency is on record?
Answer: inconclusive: 7.94 µM [activator, partial curve, poor fit]

Question: For `CCOC(=O)c1c(C)nc2sccn12`, which Potency is on record?
Answer: inactive

Question: Which Potency does the source give for `COC(=O)c1cc(Br)ccc1-c1ccc(/C=N/n2nnnc2N)o1` here?
Answer: inconclusive: 2.06 µM [inhibitor, partial curve]

Question: For `CC1=C(C(=O)Nc2ccccn2)C(c2ccc(F)cc2)n2ncnc2N1` (stereo unspecified), which Potency is on record?
Answer: inactive

Question: For `COc1ccc(NC(=O)c2[nH]c(C)c(C(C)=O)c2C)cc1S(=O)(=O)Nc1ccc(Br)cc1`, which Potency is on record?
Answer: inconclusive: 14.1 µM [inhibitor, partial curve, poor fit]

Question: Which Potency does the source give for `O=C(CCC(=O)N/N=C/c1ccco1)N/N=C/c1ccco1` here?
Answer: inconclusive: 3.98 µM [inhibitor, single point]

Question: Which Potency does the source give for `COc1ccccc1N1C(=S)N=C(Nc2c(C)cccc2C)C12CCCC2` here?
Answer: inconclusive: 0.891 µM [inhibitor, full curve, poor fit]

Question: Which Potency does the source give for `Cc1ccc(S(=O)(=O)N(CC(=O)Nc2c(C)cccc2C)c2cccc(Cl)c2)cc1` here?
Answer: inconclusive: 5.01 µM [inhibitor, single point]

Question: Which Potency does the source give for `CC(COc1ccccc1)N1CCC(CO)(Cc2ccccc2)CC1` (stereo unspecified) here?
Answer: inconclusive: 8.91 µM [inhibitor, partial curve, poor fit]

Question: Which Potency does the source give for `O=C1c2[nH]nc(-c3ccccc3O)c2C(c2ccc(F)cc2)N1CC1CCCO1` (stereo unspecified) here?
Answer: inconclusive: 14.6 µM [inhibitor, partial curve, poor fit]

Question: Which Potency does the source give for `COc1ccc(CNc2nc3ccccc3n2Cc2ccc(Cl)cc2)cc1OC` here?
Answer: active: 11.2 µM

Question: With `CC(NCC(O)COCc1cccs1)C1CC2CCC1C2` (stereo unspecified) as the compound, how does the Potency read?
Answer: inconclusive: 11.6 µM [inhibitor, partial curve, poor fit]

Question: With `O=C(CSc1nc(-c2ccccc2)cc(C(F)(F)F)n1)NCCN1CCOCC1` as the compound, how does the Potency read?
Answer: inconclusive: 6.31 µM [inhibitor, full curve, poor fit]
